PubChem BioAssay AID1224831, NIAID | 2016
Here is one part, drawn at random, of about 3,500 reagents tested. 731 of them (21%) count as active. 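Active means either lowered or raised reporter signal; the gene-median score did not drive the per-siRNA calls.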 A number with no mark means an inactive call. The numbers tell different reagents against one gene apart.

Test: 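Retesting screen hits on the TLR4-driven TNF response with six separate siRNAs each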 (follow-up of hits)
Cells: human THP-1 B5 monocytic leukaemia cells carrying a TNF promoter luciferase reporter, made macrophage-like with PMA
Reagents: single siRNA against human genes, 50 nM
Timing: about 68 h of knock-down, then 4 h LPS
Treatment: LPS (Salmonella minnesota, TLR-grade) at 10 ng/ml for 4 h; PMA 5 ng/ml present during knock-down
Detection: 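Firefly to renilla luciferase ratio of a TNF promoter reporter after 4 h LPS, scaled to plate median, turned into robust z-score, averaged over replicates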
Scale: TNF reporter z-score: higher = stronger LPS-induced TNF reporter signal; z-score, median over gene's siRNAs: higher = stronger TNF reporter signal across the gene's siRNAs
Rule for the call: 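Two-sided call: reduced or raised TNF reporter signal counts as active once mean z reaches about -1 or below, or about 1.5 or above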
Meaning of the calls: active = changed TNF reporter (either direction); inactive = little change

| target | siRNA no. | TNF reporter z-score, replicate mean | z-score, median over gene's siRNAs |
| --- | --- | --- | --- |
| RNF38 | 1 | -0.29 | 0.08 |
| RNF38 | 2 | 0.12 | 0.08 |
| RNF38 | 3 | -0.71 | 0.08 |
| RNF38 | 4 | 0.15 | 0.08 |
| RNF38 | 5 | 0.04 | 0.08 |
| RNF38 | 6 | 0.61 | 0.08 |
| MSRB1 | 1 | -0.75 | -0.415 |
| MSRB1 | 2 | -0.36 | -0.415 |
| MSRB1 | 3 | -0.86 | -0.415 |
| MSRB1 | 4 | 0.24 | -0.415 |
| MSRB1 | 5 | -0.47 | -0.415 |
| MSRB1 | 6 | 0.07 | -0.415 |
| TCAP | 1 | 6.47 (active) | -0.075 |
| TCAP | 2 | -3.09 (active) | -0.075 |
| TCAP | 3 | -0.42 | -0.075 |
| TCAP | 4 | 0.54 | -0.075 |
| TCAP | 5 | -0.64 | -0.075 |
| TCAP | 6 | 0.27 | -0.075 |
| UBXN2A | 1 | 0.07 | 0.395 |
| UBXN2A | 2 | -0.24 | 0.395 |
| UBXN2A | 3 | 1.51 (active) | 0.395 |
| UBXN2A | 4 | 0.44 | 0.395 |
| UBXN2A | 5 | 0.35 | 0.395 |
| UBXN2A | 6 | 0.7 | 0.395 |
| RNF152 | 1 | -1.68 (active) | 0.42 |
| RNF152 | 2 | -0.37 | 0.42 |
| RNF152 | 3 | 1.29 | 0.42 |
| RNF152 | 4 | 0.55 | 0.42 |
| RNF152 | 5 | 0.29 | 0.42 |
| RNF152 | 6 | 1.08 | 0.42 |
| HLA-DQA2 | 1 | -1.08 (active) | 0.08 |
| HLA-DQA2 | 2 | 0.24 | 0.08 |
| HLA-DQA2 | 3 | 0.66 | 0.08 |
| HLA-DQA2 | 4 | -1.44 (active) | 0.08 |
| HLA-DQA2 | 5 | -0.08 | 0.08 |
| HLA-DQA2 | 6 | 0.64 | 0.08 |
| VPS36 | 1 | -2.08 (active) | -0.15 |
| VPS36 | 2 | 2.64 (active) | -0.15 |
| VPS36 | 3 | -0.75 | -0.15 |
| VPS36 | 4 | 3.1 (active) | -0.15 |
| VPS36 | 5 | 0.45 | -0.15 |
| VPS36 | 6 | -1.15 (active) | -0.15 |
| SLC36A3 | 1 | 0.82 | 0.225 |
| SLC36A3 | 2 | 0.33 | 0.225 |
| SLC36A3 | 3 | 0.12 | 0.225 |
| SLC36A3 | 4 | 0.85 | 0.225 |
| SLC36A3 | 5 | 0.05 | 0.225 |
| SLC36A3 | 6 | -0.27 | 0.225 |
| KIR2DL5A | 1 | 0.74 | 0.045 |
| KIR2DL5A | 2 | -0.05 | 0.045 |
| KIR2DL5A | 3 | 0.42 | 0.045 |
| KIR2DL5A | 4 | 0.08 | 0.045 |
| KIR2DL5A | 5 | -0.69 | 0.045 |
| KIR2DL5A | 6 | 0.01 | 0.045 |
| NLGN4X | 1 | -0.6 | 0.33 |
| NLGN4X | 2 | 0.95 | 0.33 |
| NLGN4X | 3 | -0.26 | 0.33 |
| NLGN4X | 4 | 0.63 | 0.33 |
| NLGN4X | 5 | 0.03 | 0.33 |
| NLGN4X | 6 | 4.2 (active) | 0.33 |

An excerpt from above, reduced to “TNF reporter z-score, replicate mean”:
MSRB1 #6: 0.07
TCAP #1: 6.47 (active)
TCAP #2: -3.09 (active)
